These are yes or no findings as the source states them, for the method shown. Some binding calls cover weakened binding; strength is not graded here.

Protein sequences, listed by entry. Tags and fused reporters are not part of them. Lines headed by an entry give the natural chain unless they say otherwise; changes in a name come on top.
UniProt P06756: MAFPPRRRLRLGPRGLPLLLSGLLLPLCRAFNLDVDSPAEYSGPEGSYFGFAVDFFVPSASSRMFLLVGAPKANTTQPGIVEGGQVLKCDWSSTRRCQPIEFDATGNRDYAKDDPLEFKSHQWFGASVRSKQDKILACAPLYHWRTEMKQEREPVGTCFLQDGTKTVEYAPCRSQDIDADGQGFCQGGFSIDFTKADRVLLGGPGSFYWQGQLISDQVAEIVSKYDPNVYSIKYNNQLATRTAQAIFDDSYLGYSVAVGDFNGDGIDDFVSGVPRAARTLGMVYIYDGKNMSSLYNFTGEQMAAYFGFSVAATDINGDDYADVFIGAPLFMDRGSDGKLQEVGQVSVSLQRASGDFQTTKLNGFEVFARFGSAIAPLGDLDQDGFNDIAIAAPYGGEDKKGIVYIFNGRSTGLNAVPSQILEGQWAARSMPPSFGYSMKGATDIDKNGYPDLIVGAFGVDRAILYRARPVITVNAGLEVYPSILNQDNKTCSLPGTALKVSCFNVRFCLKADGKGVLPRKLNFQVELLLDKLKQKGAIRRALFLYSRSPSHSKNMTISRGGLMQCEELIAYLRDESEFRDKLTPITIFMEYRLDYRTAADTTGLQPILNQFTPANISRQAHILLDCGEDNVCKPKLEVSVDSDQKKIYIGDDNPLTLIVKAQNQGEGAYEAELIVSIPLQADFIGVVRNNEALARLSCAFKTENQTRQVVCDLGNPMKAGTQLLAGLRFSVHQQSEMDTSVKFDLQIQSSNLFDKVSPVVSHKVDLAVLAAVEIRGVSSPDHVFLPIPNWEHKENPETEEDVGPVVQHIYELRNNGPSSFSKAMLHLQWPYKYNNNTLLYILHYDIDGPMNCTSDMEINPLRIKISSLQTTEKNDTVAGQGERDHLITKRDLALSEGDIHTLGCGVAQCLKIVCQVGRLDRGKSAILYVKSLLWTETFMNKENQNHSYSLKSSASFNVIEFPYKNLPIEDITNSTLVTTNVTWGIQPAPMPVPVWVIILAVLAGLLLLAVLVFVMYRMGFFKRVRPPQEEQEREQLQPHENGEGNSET

The text below walks through data of patent US20230112035A1 (AstraZeneca / MedImmune, published 2023).

For experiment [1], the target named is recombinantly produced αvβ8 integrin protein (UniProt P06756). The experiment in a line: binding curves of IgG on αvβ8 integrin protein (FIG. 1A).
The target is the same in experiment [2]. The experiment can be described thus: binding curves (FIG. 1B).
Experiment [3] has the same target. The experiment in a line: affinity binding studies (FIG. 1A).
The target is the same in experiment [4]. The experiment can be described thus: ELISA, recombinant αvβ8 integrin protein coated, HRP goat anti-human Fc detection. For orientation: ELISA stands for enzyme-linked immunosorbent assay.
Experiment [5] shares this target. The experiment in a line: ELISA on coated recombinant αvβ8 integrin protein (FIG. 4).
The target is the same in experiment [6]. The experiment in a line: comparison of FIG. 1B (Biacore, binding curves) and FIG. 4 (ELISA). A general note: Surface plasmon resonance follows binding to a sensor surface in real time, without labels.
Experiment [7] shares this target. The experiment can be described thus: binding curves and Biacore (FIG. 1B).
The target is the same in experiment [8]. The experiment can be described thus: ELISA screening of position 94 mutants.

B1: hu37E1B5 anti-αvβ8 integrin antibody (UCSF humanized sequence of WO 2013/026004) (antibody, V domains shown)
VH: EVQLVESGGGLVQPGGSLRLSCAVSGFVFSRYWMSWVRQAPGKGLEWIGEINPDSSTINYTSSLKDRFTISRDNAKNSLYLQMNSLRAEDTAVYYCASLITTEDYWGQGTTVTVSS
VL: EIVLTQSPSSLSLSPGERVTITCKASQDINSYLSWYQQKPGKAPKLLIYYANRLVDGVPARFSGSGSGQDYTLTISSLEPEDFAVYYCLQYDEFPYTFGGGTKLEIK
Consider B1, for which the binding entry in experiment [1], in experiment [2] and in experiment [3] was “binds” in each case.

B2: B5-15 humanized and affinity optimized anti-αvβ8 integrin antibody (antibody, V domains shown)
VH: EVQLVESGGGLVQPGGSLRLSCAVSGFVFSRSWISWVRQAPGKGLEWIGEINPDSSTINYTSSLKDRFTISRDNAKNSLYLQMNSLRAEDTAVYYCAILITTEDYWGQGTTVTVSS
VL: DIQLTQSPSSLSASVGDRVTITCKASQDINKYLSWFQQKPGKAPKSLIYYANRLVDGVPSRFSGSGSGTDFTLTISSLQPEDFATYYCLQYDVFPYTFGGGTKVEIK
On to B2, for which the binding entry in experiment [4], in experiment [5] and in experiment [6] was “binds” each time.

B3: B5-15 N59Q anti-αvβ8 integrin antibody (antibody, V domains shown)
VH: EVQLVESGGGLVQPGGSLRLSCAVSGFVFSRSWISWVRQAPGKGLEWIGEINPDSSTIQYTSSLKDRFTISRDNAKNSLYLQMNSLRAEDTAVYYCAILITTEDYWGQGTTVTVSS
VL: DIQLTQSPSSLSASVGDRVTITCKASQDINKYLSWFQQKPGKAPKSLIYYANRLVDGVPSRFSGSGSGTDFTLTISSLQPEDFATYYCLQYDVFPYTFGGGTKVEIK
Take B3: in experiment [4], the binding entry is listed as “binds”.

B4: Chi-37E1B5 chimeric anti-αvβ8 integrin antibody (antibody, V domains shown)
VH: EVQLVESGGGLVQPGGSLNLSCAVSGFVFSRYWMSWVRQAPGKGLEWIGEINPDSSTINYTSSLKDKFIISRDNAKNTLYLQMNKVRSEDTALYYCACLITTEDYWGQGTSVTVSS
VL: EIVLTQSPSSMYASLGERVTIPCKASQDINSYLSWFQQKPGKSPKTLIYYANRLVDGVPSRFSGSGSGQDYSLTISSLEYEDMGIYYCLQYDEFPYTFGGGTKLEIK
In the case of B4, the binding entry in experiment [1], in experiment [2] and in experiment [7] was “binds” throughout.

B5: MEDI-hu37E1B5-C94I mutant antibody (antibody, V domains shown)
VH: EVQLVESGGGLVQPGGSLRLSCAVSGFVFSRYWMSWVRQAPGKGLEWIGEINPDSSTINYTSSLKDRFTISRDNAKNSLYLQMNSLRAEDTAVYYCAILITTEDYWGQGTTVTVSS
VL: DIQLTQSPSSLSASVGDRVTITCKASQDINSYLSWFQQKPGKAPKSLIYYANRLVDGVPSRFSGSGSGTDFTLTISSLQPEDFATYYCLQYDEFPYTFGGGTKVEIK
notes: IgG; also called humanized anti-αvβ8 integrin antibody C94I
In the case of B5, in experiment [8], the binding entry is on record as “binds”.
